Article PMC6122839

By UniProt entry, the sequences of proteins in these tests, tags left out. Where a name states a change or a piece, a line headed by the entry shows the natural chain unless it says otherwise.
UniProt Q8I3L1: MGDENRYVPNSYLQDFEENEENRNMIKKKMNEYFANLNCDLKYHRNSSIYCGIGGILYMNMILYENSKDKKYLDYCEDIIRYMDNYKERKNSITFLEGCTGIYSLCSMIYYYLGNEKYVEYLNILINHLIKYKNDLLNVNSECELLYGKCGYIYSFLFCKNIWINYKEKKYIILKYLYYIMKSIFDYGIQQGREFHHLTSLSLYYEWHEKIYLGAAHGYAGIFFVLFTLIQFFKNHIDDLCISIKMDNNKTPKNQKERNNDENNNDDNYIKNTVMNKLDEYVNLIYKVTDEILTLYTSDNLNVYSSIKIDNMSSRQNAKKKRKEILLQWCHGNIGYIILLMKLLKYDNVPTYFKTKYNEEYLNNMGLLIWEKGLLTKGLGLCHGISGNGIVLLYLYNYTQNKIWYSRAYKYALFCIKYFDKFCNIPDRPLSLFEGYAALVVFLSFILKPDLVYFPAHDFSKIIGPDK
UniProt Q8I1R7: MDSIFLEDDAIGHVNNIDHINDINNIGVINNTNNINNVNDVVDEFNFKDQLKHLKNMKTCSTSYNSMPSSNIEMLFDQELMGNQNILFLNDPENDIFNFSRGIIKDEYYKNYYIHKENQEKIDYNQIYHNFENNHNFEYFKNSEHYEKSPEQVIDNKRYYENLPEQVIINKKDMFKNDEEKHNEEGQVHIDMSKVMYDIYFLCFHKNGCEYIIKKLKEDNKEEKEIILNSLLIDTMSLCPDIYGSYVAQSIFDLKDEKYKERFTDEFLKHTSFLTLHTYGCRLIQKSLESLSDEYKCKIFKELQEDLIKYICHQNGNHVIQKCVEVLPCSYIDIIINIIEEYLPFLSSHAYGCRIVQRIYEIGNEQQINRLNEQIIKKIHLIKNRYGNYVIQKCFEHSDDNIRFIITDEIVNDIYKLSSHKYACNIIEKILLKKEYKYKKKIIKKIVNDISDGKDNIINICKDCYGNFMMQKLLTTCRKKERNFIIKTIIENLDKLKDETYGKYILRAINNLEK
UniProt Q8I5H4: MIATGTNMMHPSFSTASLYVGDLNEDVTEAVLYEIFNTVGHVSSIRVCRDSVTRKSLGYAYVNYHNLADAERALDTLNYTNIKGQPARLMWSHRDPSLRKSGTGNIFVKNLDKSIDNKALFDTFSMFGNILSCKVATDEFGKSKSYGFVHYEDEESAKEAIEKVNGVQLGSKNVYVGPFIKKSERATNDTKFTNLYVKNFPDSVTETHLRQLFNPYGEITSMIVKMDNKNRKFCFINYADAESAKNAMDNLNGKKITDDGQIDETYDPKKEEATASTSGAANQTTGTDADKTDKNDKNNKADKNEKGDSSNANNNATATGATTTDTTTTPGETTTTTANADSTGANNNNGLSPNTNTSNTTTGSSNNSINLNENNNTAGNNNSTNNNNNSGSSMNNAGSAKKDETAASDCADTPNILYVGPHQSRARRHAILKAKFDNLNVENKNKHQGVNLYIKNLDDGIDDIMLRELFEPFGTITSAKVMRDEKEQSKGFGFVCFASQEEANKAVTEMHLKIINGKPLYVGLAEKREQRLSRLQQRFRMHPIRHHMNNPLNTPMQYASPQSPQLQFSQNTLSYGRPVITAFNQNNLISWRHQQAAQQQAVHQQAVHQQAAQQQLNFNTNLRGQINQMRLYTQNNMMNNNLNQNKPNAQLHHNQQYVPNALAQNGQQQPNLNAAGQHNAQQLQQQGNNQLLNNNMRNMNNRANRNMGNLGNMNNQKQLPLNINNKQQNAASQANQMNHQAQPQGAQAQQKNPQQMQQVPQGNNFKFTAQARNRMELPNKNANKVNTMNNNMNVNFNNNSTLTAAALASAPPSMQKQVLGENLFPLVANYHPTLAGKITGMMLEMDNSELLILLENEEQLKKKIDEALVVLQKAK
UniProt Q8IK89: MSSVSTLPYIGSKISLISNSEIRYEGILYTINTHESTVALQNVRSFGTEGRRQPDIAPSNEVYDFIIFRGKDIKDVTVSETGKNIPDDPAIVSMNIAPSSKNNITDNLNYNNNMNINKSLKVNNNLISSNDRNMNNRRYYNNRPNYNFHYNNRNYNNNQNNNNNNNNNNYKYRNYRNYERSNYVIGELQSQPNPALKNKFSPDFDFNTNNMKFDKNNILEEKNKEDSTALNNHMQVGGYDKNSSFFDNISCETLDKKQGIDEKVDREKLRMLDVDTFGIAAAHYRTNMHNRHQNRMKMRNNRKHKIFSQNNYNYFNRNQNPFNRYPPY

Key:
[1] = target: 7-Helix-1 (P. falciparum (endogenous in NF54 gametocytes)) (UniProt Q8I3L1); assay: co-IP; gametocyte lysates of WT NF54 or the 7-Helix-1-HA line, pre-cleared with 5% pre-immune sera and protein G-beads 1 h at 4°C; 5% polyclonal antisera 1 h at 4°C, protein G-beads overnight at 4°C; five washes with PBS; Western blot
[2] = target: Pumilio-2 (Puf2) (P. falciparum (endogenous in gametocytes)) (UniProt Q8I1R7); assay: as above

Row | Substance | binding [1] | binding [2]
1 | PABP1 (polyadenylate-binding protein 1) (from UniProt Q8I5H4) | binds | –
2 | CITH (CAR-I/trailer hitch homolog) (from UniProt Q8IK89) | binds | –
3 | 7-Helix-1-HA (from UniProt Q8I3L1) | – | binds

Results are given in words; binding and its absence hold for the method and conditions named. In cells and extracts the contact can be indirect. A result given as binding can be weak or reduced; the word gives no strength.
